Test results from the supplement of paper PMC10849652.
Some of the results follow.

Protein sequences, listed by entry. Tags and fused reporters are not part of them. Lines headed by an entry give the natural chain unless they say otherwise; changes in a name come on top.
UniProt Q9H204: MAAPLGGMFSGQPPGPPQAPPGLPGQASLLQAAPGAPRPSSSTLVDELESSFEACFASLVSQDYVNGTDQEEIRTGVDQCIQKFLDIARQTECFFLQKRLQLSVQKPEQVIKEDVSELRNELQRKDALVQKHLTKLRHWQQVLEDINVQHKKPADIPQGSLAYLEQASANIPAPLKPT
UniProt Q9BUE0: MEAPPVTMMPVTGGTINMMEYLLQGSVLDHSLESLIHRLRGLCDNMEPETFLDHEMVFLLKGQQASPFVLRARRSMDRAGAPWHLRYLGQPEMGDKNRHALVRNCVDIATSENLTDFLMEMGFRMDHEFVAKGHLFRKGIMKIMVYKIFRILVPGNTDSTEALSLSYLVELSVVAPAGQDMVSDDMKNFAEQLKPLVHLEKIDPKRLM
UniProt Q9NZL9, whole entry, looked up: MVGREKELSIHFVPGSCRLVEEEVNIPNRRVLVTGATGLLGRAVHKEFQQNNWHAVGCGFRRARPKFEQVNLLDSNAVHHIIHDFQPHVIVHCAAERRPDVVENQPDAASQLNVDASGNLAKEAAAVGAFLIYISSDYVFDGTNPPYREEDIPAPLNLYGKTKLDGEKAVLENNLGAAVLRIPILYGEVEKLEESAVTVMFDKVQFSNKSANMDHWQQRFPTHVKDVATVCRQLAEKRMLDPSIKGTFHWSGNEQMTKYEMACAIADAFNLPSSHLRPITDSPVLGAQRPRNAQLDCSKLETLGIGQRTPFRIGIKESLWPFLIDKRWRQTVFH
UniProt P61244, whole entry, looked up: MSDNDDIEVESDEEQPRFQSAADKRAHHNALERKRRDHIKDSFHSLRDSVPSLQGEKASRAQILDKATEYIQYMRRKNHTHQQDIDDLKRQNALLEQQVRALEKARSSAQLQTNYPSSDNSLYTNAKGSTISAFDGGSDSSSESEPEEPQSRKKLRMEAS
UniProt Q9NPJ6: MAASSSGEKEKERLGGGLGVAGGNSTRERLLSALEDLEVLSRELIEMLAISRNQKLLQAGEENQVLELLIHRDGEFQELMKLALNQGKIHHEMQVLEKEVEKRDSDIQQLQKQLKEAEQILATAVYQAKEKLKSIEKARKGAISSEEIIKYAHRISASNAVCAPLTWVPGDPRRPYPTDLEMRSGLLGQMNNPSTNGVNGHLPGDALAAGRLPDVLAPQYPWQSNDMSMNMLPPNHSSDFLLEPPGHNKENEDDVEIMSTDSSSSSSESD
UniProt O95983: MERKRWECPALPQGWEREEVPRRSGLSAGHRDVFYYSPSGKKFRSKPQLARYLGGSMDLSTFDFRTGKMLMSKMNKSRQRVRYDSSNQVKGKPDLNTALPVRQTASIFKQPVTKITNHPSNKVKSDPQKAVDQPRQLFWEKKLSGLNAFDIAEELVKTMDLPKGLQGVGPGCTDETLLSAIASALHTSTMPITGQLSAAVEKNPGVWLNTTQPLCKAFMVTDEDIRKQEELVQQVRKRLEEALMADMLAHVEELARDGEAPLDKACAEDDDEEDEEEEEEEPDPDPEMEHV
UniProt Q9NR56: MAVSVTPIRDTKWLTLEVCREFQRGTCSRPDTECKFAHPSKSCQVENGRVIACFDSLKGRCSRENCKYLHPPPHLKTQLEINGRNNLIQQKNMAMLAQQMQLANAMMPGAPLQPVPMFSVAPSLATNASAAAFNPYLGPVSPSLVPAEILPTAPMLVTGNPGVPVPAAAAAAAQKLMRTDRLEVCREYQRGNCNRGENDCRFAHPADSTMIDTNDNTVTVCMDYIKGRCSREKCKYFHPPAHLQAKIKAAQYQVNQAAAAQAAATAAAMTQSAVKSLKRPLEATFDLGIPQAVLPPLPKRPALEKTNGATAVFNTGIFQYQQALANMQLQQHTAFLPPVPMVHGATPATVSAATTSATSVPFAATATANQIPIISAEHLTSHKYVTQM
UniProt P33992: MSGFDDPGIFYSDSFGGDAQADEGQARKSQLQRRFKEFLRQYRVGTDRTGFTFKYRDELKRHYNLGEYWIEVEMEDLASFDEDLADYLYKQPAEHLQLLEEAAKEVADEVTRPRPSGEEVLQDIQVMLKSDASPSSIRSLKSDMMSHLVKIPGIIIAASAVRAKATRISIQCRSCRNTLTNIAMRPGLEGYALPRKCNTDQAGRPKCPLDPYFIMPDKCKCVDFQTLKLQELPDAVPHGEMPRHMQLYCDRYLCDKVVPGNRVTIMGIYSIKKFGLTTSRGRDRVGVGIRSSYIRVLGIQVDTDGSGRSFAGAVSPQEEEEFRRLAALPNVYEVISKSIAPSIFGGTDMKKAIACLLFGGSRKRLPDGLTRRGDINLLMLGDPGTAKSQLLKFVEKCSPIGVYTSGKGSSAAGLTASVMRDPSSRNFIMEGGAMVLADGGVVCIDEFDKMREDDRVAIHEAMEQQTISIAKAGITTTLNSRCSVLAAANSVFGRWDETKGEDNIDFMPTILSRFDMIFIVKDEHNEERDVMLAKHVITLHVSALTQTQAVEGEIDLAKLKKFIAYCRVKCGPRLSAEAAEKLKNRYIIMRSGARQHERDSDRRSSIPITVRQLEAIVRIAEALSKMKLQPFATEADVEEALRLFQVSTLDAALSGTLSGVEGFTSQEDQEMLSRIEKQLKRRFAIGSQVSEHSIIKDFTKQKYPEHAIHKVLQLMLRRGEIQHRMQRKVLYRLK
UniProt Q8NI22: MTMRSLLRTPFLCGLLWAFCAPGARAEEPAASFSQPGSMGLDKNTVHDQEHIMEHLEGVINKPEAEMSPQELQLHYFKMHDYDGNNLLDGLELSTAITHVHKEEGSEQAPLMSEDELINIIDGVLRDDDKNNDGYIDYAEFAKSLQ
UniProt P43121, whole entry, looked up: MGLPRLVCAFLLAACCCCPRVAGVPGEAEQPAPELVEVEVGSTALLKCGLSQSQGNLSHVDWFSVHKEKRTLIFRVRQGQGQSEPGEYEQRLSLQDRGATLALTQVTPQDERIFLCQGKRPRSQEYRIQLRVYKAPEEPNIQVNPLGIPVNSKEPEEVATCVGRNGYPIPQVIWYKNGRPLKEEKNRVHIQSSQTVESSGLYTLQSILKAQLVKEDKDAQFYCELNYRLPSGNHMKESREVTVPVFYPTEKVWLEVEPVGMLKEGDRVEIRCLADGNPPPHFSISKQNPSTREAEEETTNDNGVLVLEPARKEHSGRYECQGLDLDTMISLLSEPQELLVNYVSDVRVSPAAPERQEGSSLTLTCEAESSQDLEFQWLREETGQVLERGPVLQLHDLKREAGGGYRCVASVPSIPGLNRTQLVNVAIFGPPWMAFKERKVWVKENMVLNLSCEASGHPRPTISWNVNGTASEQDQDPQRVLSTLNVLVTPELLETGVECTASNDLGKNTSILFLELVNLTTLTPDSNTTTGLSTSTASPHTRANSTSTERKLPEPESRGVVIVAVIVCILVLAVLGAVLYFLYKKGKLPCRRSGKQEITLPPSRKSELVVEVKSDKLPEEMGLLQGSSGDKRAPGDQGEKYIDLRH
UniProt Q9BTE3: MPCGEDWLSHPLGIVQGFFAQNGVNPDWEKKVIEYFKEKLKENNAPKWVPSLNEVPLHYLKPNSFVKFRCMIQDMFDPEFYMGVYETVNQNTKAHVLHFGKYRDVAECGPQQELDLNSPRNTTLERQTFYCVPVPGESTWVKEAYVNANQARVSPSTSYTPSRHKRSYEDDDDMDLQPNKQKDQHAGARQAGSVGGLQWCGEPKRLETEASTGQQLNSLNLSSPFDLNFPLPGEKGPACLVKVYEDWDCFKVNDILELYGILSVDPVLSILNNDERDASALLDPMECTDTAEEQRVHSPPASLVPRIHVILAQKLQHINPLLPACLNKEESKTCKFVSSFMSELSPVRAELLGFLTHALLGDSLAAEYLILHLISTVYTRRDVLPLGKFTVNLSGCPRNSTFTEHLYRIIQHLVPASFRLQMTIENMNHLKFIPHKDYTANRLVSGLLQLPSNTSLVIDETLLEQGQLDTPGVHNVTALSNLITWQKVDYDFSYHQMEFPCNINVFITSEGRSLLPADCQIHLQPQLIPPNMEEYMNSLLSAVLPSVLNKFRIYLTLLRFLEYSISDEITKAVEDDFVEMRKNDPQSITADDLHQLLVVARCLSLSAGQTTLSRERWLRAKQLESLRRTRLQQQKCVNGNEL
UniProt P40926: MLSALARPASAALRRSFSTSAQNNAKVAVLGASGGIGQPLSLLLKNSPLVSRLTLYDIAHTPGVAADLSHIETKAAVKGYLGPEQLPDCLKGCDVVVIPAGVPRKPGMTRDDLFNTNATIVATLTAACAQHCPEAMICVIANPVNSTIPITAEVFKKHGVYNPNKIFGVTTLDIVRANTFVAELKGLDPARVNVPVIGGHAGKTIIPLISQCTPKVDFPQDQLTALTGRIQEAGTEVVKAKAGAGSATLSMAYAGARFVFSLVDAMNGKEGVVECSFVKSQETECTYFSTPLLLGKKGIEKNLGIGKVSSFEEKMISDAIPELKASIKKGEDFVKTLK
UniProt P51608, whole entry, looked up: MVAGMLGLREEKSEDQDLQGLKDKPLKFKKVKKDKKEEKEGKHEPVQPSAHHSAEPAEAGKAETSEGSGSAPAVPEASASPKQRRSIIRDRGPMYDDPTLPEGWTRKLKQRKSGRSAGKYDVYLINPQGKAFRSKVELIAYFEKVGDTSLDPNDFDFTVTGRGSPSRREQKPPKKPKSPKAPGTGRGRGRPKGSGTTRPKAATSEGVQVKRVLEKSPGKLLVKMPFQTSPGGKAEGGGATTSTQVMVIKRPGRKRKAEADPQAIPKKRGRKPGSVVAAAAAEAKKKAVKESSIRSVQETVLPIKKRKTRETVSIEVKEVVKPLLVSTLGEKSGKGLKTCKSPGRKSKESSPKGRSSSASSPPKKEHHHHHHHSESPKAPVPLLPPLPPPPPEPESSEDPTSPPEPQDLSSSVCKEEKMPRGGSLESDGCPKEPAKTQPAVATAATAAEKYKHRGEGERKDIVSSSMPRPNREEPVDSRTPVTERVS
UniProt Q7Z434: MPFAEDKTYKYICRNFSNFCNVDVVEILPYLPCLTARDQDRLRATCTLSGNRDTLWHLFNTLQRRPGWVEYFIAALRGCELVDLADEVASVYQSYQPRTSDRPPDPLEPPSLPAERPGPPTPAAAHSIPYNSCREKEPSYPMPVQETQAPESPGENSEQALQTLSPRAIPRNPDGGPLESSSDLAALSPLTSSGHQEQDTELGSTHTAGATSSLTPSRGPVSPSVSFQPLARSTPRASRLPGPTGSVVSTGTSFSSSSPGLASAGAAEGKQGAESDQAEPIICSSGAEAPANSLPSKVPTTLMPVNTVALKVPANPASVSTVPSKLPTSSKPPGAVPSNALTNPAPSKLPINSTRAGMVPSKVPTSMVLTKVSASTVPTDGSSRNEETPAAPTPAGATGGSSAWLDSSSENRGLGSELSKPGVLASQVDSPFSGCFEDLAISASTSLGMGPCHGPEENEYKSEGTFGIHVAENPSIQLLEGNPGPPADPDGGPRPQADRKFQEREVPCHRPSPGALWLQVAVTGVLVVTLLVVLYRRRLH
UniProt Q00266: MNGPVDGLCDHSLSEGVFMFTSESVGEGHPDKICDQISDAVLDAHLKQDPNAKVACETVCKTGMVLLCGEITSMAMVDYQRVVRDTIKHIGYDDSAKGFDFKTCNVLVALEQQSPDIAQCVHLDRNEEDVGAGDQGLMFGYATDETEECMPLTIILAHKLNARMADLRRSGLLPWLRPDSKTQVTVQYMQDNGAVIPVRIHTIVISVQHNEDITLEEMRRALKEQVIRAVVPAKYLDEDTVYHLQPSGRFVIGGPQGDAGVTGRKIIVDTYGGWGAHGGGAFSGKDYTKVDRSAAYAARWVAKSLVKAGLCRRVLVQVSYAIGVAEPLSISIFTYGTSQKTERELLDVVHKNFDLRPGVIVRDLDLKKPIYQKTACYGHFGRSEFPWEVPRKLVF
UniProt O75586: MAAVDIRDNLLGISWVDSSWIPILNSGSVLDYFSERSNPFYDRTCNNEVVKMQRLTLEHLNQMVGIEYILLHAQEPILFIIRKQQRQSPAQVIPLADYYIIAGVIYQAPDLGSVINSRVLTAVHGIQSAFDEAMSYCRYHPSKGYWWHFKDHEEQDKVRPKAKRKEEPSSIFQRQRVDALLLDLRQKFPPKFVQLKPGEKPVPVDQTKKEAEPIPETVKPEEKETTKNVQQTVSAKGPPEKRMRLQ
UniProt Q86W50: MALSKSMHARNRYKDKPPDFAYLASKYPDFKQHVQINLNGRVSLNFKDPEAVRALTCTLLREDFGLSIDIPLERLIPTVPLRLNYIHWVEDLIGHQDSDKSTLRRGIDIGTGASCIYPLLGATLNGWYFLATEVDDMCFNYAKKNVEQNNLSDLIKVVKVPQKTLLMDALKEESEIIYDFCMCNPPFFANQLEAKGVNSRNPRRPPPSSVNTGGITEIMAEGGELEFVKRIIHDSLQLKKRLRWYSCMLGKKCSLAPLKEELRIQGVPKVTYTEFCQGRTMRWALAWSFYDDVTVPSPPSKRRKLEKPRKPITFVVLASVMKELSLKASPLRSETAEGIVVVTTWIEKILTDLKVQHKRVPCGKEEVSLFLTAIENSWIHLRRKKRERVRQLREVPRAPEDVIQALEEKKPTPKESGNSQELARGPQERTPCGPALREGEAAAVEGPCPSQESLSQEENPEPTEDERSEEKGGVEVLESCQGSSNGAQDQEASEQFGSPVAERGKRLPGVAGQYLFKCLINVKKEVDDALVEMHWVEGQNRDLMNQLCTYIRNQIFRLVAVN

compound: c1cn2cc(-c3ccc4cn[nH]c4c3)nc(Nc3ccc(N4CCOCC4)cc3)c2n1 [entospletinib]; assay: log2 fold change, soluble protein after heating vs DMSO (PISA); higher = thermal stabilisation; K562 cells, 10 uM, 30 min; active = over 0.2 and 3.5 SD of the protein, either way, in both replicates (recomputed)
Summary of the method: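 K562 cells at 2×10^6 cells/mL were treated for 30 min with 10 μM compound, and aliquots were heated for 3 min over 48°C-58°C before pooling. Extraction used PBS with 0.5% NP-40 at 4°C, and soluble protein was the supernatant after 21,000xg for 90 min, measured by TMTpro 16plex LC-MS/MS with channel sums equalised. Thermal stability values, relative to control samples and from duplicates, are log2 fold changes.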

log2 fold change, inactive:
MED28 (UniProt Q9H204) 0.007
MCCC1 (UniProt Q96RQ3) 0.08
MED18 (UniProt Q9BUE0) 0.073
MAT2B (UniProt Q9NZL9) -0.008
MCM6 (UniProt Q14566) -0.001
MCM7 (UniProt P33993) -0.01
MEF2D (UniProt Q14814) 0.008
MAX (UniProt P61244) 0.025
MED30 (UniProt Q96HR3) -0.013
MED4 (UniProt Q9NPJ6) 0.037
MBD3 (UniProt O95983) 0
MBNL1 (UniProt Q9NR56) -0.059
MCRIP1 (UniProt I3L4Q0) -0.019
MCM5 (UniProt P33992) -0.093
MESD (UniProt Q14696) 0.008
MED19 (UniProt A0JLT2) -0.01
MCFD2 (UniProt Q8NI22) 0.033
MCAM (UniProt P43121) -0.034
MCMBP (UniProt Q9BTE3) -0.016
MAZ isoform 2 (UniProt P56270) 0.135
MIA3 (UniProt Q5JRA6) -0.023
MDH2 (UniProt P40926) 0.032
MECP2 isoform 2 (UniProt P51608) 0.038
MAVS (UniProt Q7Z434) -0.007
MAT1A (UniProt Q00266) -0.016
METTL26 (UniProt Q96S19) 0.028
MGAT2 (UniProt Q10469) 0.047
MED6 (UniProt O75586) -0.035
METTL16 (UniProt Q86W50) -0.046

A portion taken from the entries so far, as a working copy:
log2 fold change, inactive:
METTL26 (UniProt Q96S19) 0.028
MGAT2 (UniProt Q10469) 0.047
